These are yes or no findings as the source states them, for the method shown. Binding seen in cells or lysates may run through a third protein. Here binding means that the protein was enriched with, or labelled near, the bait; the list need not be complete. For part of these data: No binding means not detected with the bait. For part of these data: Where a sequence is shown, tags or fusion partners need not be part of it.

The target in test [1] is T1, Flag-tagged U2AF1a (endogenous, U2af1a-only Tsc1-/- MEF cell line) (mouse (endogenous in Tsc1-/- MEFs)) (UniProt Q9D883).
T1 sequence: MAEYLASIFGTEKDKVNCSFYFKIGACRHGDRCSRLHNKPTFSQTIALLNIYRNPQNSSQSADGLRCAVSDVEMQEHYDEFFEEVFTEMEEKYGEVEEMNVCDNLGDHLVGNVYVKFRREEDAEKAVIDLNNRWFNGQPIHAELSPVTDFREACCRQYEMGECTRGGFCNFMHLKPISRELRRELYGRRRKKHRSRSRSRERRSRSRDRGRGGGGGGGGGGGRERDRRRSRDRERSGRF
The test is described as follows: affinity purification with mass spectrometry; cells cross-linked with 0.2% formaldehyde for 10 min; lysis buffer with 300 mM NaCl, 0.5% Empigen, 0.5% NP-40; anti-Flag M2 magnetic beads, in the presence of RNase A, eluted with 3x Flag peptide; label-free quantification against a control Flag-IP.

The target of test [2] is Flag-tagged U2AF1b (endogenous, U2af1b-only Tsc1-/- MEF cell line) (mouse (endogenous in Tsc1-/- MEFs)). Described as above.

B1: SF3A1 (protein, UniProt Q8K4Z5 1-791)
chain: MQAGPVQAVPPPPPVATESKQPIEEEASSKEDPTPSKPVVGIIYPPPEVRNIVDKTASFVARNGPEFEARIRQNEINNPKFNFLNPNDPYHAYYRHKVSEFKEGKAQEPSAAIPKVMQQQQQATQQQLPQKVQAQVIQETIVPKEPPPEFEFIADPPSISAFDLDVVKLTAQFVARNGRQFLTQLMQKEQRNYQFDFLRPQHSLFNYFTKLVEQYTKILIPPKGLFSKLKKEAENPREVLDQVCYRVEWAKFQERERKKEEEEKEKERVAYAQIDWHDFVVVETVDFQPNEQGNFPPPTTPEELGARILIQERYEKFGESEEVEMEVESDEEDQEKAEETPSQLDQDTQVQDMDEGSDDEEEGQKVPPPPETPMPPPLPPTPDQVIVRKDYDPKASKPLPPAPAPDEYLVSPITGEKIPASKMQEHMRIGLLDPRWLEQRDRSIREKQSDDEVYAPGLDIESSLKQLAERRTDIFGVEETAIGKKIGEEEIQKPEEKVTWDGHSGSMARTQQAAQANITLQEQIEAIHKAKGLVPEDDTKEKIGPSKPNEIPQQPPPPSSATNIPSSAPPITSVPRPPAMPPPVRTTVVSAVPVMPRPPMASVVRLPPGSVIAPMPPIIHAPRINVVPMPPAAPPIMAPRPPPMIVPTAFVPAPPVAPVPAPAPMPPVHPPPPMEDEPPSKKLKTEDSLMPEEEFLRRNKGPVSIKVQVPNMQDKTEWKLNGQGLVFTLPLTDQVSVIKVKIHEATGMPAGKQKLQYEGIFIKDSNSLAYYNMASGAVIHLALKERGGRKK
With B1, the binding result in test [1] is “binds”.

B2: MBNL2 (endogenous, MEFs) (protein, UniProt Q8C181 1-373)
chain: MALNVAPVRDTKWLTLEVCRQYQRGTCSRSDEECKFAHPPKSCQVENGRVIACFDSLKGRCSRENCKYLHPPTHLKTQLEINGRNNLIQQKTAAAMLAQQMQFMFPGTPLHPVPTFPVGPTIGTNAAISFAPYLAPVTPGVGLVPTEVLPTTPVIVPGSPPVTVPGSTATQKLLRTDKLEVCREFQRGNCARGETDCRFAHPADSTMIDTNDNTVTVCMDYIKGRCMREKCKYFHPPAHLQAKIKAAQHQANQAAVAAQAAAAAATVMTQSTAKALKRPLEATVDLAFPPGALHPLPKRQALEKSNGASTVFNPSVLHYQQALTSAQLQQHTAFIPTVPMMHSATSATVSAATTPATSVPFAATATANQIILK
In the case of B2, the binding result is recorded as “no binding” in test [1] and “binds” in test [2].
